For some of these results: Expression grades refer to the transcript from which the peptide derives; gene names, where given, were looked up from the sequence.
Assays:
[1] = tested on: tumor samples of other tumor types; assay: LC-MS detection/over-presentation of peptides on additional tumor types vs normal tissues; design: species or system human; settings: for Additional Entities: additional tumor types: over-presentation on more than 5% of measured tumor samples, or presentation on more than 5% with ratio of geometric means tumor vs normal larger than 3; for Other relevant organs/diseases: additional tumor types: over-presented on more than 5% of measured tumor samples, or presented on more than 5% with ratio of geometric means tumor vs normal tissues larger than 3
[2] = tested on: source genes (mRNA) in RCC and normal tissues; assay: Expression profiling of genes encoding the peptides (Affymetrix microarray); design: species or system human; key: very highly over-expressed in tumors compared to a panel of normal tissues (+++); highly over-expressed in tumors compared to a panel of normal tissues (++); over-expressed in tumors compared to a panel of normal tissues (+); settings: tumors compared to a panel of normal tissues
[3] = tested on: RCC samples; assay: Label-free relative LC-MS quantitation of HLA-presented peptides (presentation profile/score), RCC vs normal tissues; design: species or system human; key: very highly over-presented on tumors compared to a panel of normal tissues (+++); highly over-presented on tumors compared to a panel of normal tissues (++); over-presented on tumors compared to a panel of normal tissues (+); settings: tumors (RCC) compared to a panel of normal tissues

In the case of “63: peptide found in ERAP1 (gene looked up) (GLIEDHFDVTV; listed as Homo sapiens) [compound 63]”, the “Additional Entities” value [1] is reported as “SCLC”, the Other relevant organs/diseases [1] is reported as “Lung, Colon, Rectum, Prostate, Leukocytes, Melanoma, Ovary” and the “Gene Expression (expression score)” value [2] is reported as “+”.

“87: peptide found in APOL1 (gene looked up) (LADGVQKV; listed as Homo sapiens) [compound 87]” was tested, and the Other relevant organs/diseases [1] was “Breast, Melanoma” and the “Gene Expression (expression score)” value [2] was “++”.

With “65: peptide found in TPI1 (gene looked up) (IIYGGSVTGA; listed as Homo sapiens) [compound 65]” the “Additional Entities” value [1] was “CLL, Melanoma, Urinary bladder cancer, Uterine Cancer”, the Other relevant organs/diseases [1] was “Breast” and the “Gene Expression (expression score)” value [2] was “+”.

With “109 (YLWSRVEKL; listed as Homo sapiens) [compound 109]” the “Peptide Presentation (presentation score)” value (from here on “Peptide Presentation”) [3] was “+”, the “Additional Entities” value [1] was “CLL, NHL” and the Other relevant organs/diseases [1] was “Pancreas, Ovary”.

With “126: peptide found in IGF2BP3 (gene looked up) (KIQEILTQV; listed as Homo sapiens) [compound 126]” the “Peptide Presentation” value [3] was “+++” and the Other relevant organs/diseases [1] was “Lung, Brain, Stomach, Colon, Rectum, Liver, Pancreas, Leukocytes, Ovary, Esophagus”.

For “122 (SLDPSSPQV; listed as Homo sapiens) [compound 122]”, the “Peptide Presentation” value [3] was “++” and the Other relevant organs/diseases [1] was “Liver”.

In the case of “98 (KIPPVSPSI; listed as Homo sapiens) [compound 98]”, the “Peptide Presentation” value [3] is reported as “+++”, the “Additional Entities” value [1] is reported as “Uterine Cancer, NHL” and the Other relevant organs/diseases [1] is reported as “Lung, Liver, Breast”.

For “15 (ILIKHLVKV; listed as Homo sapiens) [compound 15]”, the “Peptide Presentation” value [3] was “+++”, the “Additional Entities” value [1] was “Uterine Cancer, NHL” and the Other relevant organs/diseases [1] was “Liver”.

With “127 (VLAPLFVYL; listed as Homo sapiens) [compound 127]” the “Peptide Presentation” value [3] was “++” and the Other relevant organs/diseases [1] was “Lung, Pancreas, Breast, Melanoma”.

For “141 (LLVDDSFLHTV; listed as Homo sapiens) [compound 141]”, the “Peptide Presentation” value [3] was “+++” and the Other relevant organs/diseases [1] was “Brain, Liver, Pancreas, Melanoma, Ovary, Esophagus”.

With “128 (YLEEDVYQL; listed as Homo sapiens) [compound 128]” the “Peptide Presentation” value [3] was “+++” and the Other relevant organs/diseases [1] was “Lung, Pancreas”.

With “66 (TLLKTIIKV; listed as Homo sapiens) [compound 66]” the “Peptide Presentation” value [3] was “++”, the “Additional Entities” value [1] was “Melanoma, Urinary bladder cancer” and the Other relevant organs/diseases [1] was “Brain”.

In the case of “61 (SLMGILLRI; listed as Homo sapiens) [compound 61]”, the “Peptide Presentation” value [3] is reported as “+++”, the “Additional Entities” value [1] is reported as “BRCA” and the Other relevant organs/diseases [1] is reported as “Leukocytes”.

“112 (LLFDHLEPIEL; listed as Homo sapiens) [compound 112]” was tested, and the “Peptide Presentation” value [3] was “+”, the “Additional Entities” value [1] was “BRCA, NHL” and the Other relevant organs/diseases [1] was “Leukocytes”.

For “6 (VLFELSKTV; listed as Homo sapiens) [compound 6]”, the “Peptide Presentation” value [3] was “+++” and the “Additional Entities” value [1] was “AML”.

For “13 (KIMAQILTV; listed as Homo sapiens) [compound 13]”, the “Peptide Presentation” value [3] was “+” and the “Additional Entities” value [1] was “CLL, NHL”.

With “44 (ALFSFVTAL; listed as Homo sapiens) [compound 44]” the “Peptide Presentation” value [3] was “+” and the Other relevant organs/diseases [1] was “Lung, Melanoma, Ovary”.

For “124 (ILSPLSVAL; listed as Homo sapiens) [compound 124]”, the “Peptide Presentation” value [3] was “+” and the Other relevant organs/diseases [1] was “Liver, Pancreas”.

In the case of “117 (VLFGELPAL; listed as Homo sapiens) [compound 117]”, the “Peptide Presentation” value [3] is reported as “+++” and the Other relevant organs/diseases [1] is reported as “Lung, Pancreas, Breast, Ovary”.

For “134 (VADKIHSV; listed as Homo sapiens) [compound 134]”, the “Peptide Presentation” value [3] was “+++” and the Other relevant organs/diseases [1] was “Stomach, Pancreas, Esophagus”.

“55 (YLALILPVL; listed as Homo sapiens) [compound 55]” was tested, and the “Peptide Presentation” value [3] was “+++”, the “Additional Entities” value [1] was “CLL” and the Other relevant organs/diseases [1] was “Melanoma”.

In the case of “80 (KLASMLETL; listed as Homo sapiens) [compound 80]”, the “Peptide Presentation” value [3] is reported as “+” and the “Additional Entities” value [1] is reported as “Melanoma”.

“14 (ALLTETIFL; listed as Homo sapiens) [compound 14]” was tested, and the “Peptide Presentation” value [3] was “++”, the “Additional Entities” value [1] was “NHL” and the Other relevant organs/diseases [1] was “Leukocytes”.

“86 (GLLQGKLALL; listed as Homo sapiens) [compound 86]” was tested, and the “Peptide Presentation” value [3] was “+”, the “Additional Entities” value [1] was “Uterine Cancer, NHL” and the Other relevant organs/diseases [1] was “Liver, Melanoma”.

With “10 (KLLQNNYGL; listed as Homo sapiens) [compound 10]” the “Peptide Presentation” value [3] was “+” and the “Additional Entities” value [1] was “BRCA, Gallbladder Cancer, Bile Duct Cancer”.

“23 (YIQEVVQYI; listed as Homo sapiens) [compound 23]” was tested, and the “Peptide Presentation” value [3] was “+++” and the Other relevant organs/diseases [1] was “Liver”.

In the case of “30 (QLFYTKIFL; listed as Homo sapiens) [compound 30]”, the “Peptide Presentation” value [3] is reported as “++”, the “Additional Entities” value [1] is reported as “Melanoma, Esophageal Cancer, Urinary bladder cancer, Uterine Cancer, Gallbladder Cancer, Bile Duct Cancer” and the Other relevant organs/diseases [1] is reported as “Lung, Colon, Rectum, Ovary”.

“140 (SLANNVTSV; listed as Homo sapiens) [compound 140]” was tested, and the “Peptide Presentation” value [3] was “++” and the Other relevant organs/diseases [1] was “Lung, Brain, Pancreas, Melanoma, Ovary, Esophagus”.

“48 (VVASNIMEV; listed as Homo sapiens) [compound 48]” was tested, and the “Peptide Presentation” value [3] was “+++” and the “Additional Entities” value [1] was “BRCA, Melanoma”.

With “111 (TLLETEMLL; listed as Homo sapiens) [compound 111]” the “Peptide Presentation” value [3] was “+++”, the “Additional Entities” value [1] was “Urinary bladder cancer” and the Other relevant organs/diseases [1] was “Pancreas, Breast”.

“125 (KLDPTKTTL; listed as Homo sapiens) [compound 125]” was tested, and the “Peptide Presentation” value [3] was “+++” and the Other relevant organs/diseases [1] was “Prostate”.

For “21 (RLIQGDQILSV; listed as Homo sapiens) [compound 21]”, the “Peptide Presentation” value [3] was “+++”, the “Additional Entities” value [1] was “SCLC, BRCA, Esophageal Cancer, Urinary bladder cancer, Uterine Cancer, Gallbladder Cancer, Bile Duct Cancer, OC” and the Other relevant organs/diseases [1] was “Lung, Colon, Rectum, Liver, Ovary”.

With “77 (SLIKHKIML; listed as Homo sapiens) [compound 77]” the “Peptide Presentation” value [3] was “++” and the “Additional Entities” value [1] was “CRC, Melanoma, Uterine Cancer”.

With “132 (SVASTITGV; listed as Homo sapiens) [compound 132]” the “Peptide Presentation” value [3] was “++” and the Other relevant organs/diseases [1] was “Liver, Breast”.

In the case of “108 (VLISVLQAI; listed as Homo sapiens) [compound 108]”, the “Peptide Presentation” value [3] is reported as “++”, the “Additional Entities” value [1] is reported as “BRCA, AML, NHL” and the Other relevant organs/diseases [1] is reported as “Leukocytes”.

With “56 (ILMDFSNSM; listed as Homo sapiens) [compound 56]” the “Peptide Presentation” value [3] was “+”, the “Additional Entities” value [1] was “Urinary bladder cancer, Gallbladder Cancer, Bile Duct Cancer” and the Other relevant organs/diseases [1] was “Pancreas”.

“129: peptide found in RCN1 (gene looked up) (VLAPRVLRA; listed as Homo sapiens) [compound 129]” was tested, and the “Peptide Presentation” value [3] was “++” and the Other relevant organs/diseases [1] was “Lung, Brain, Colon, Rectum, Liver, Pancreas, Ovary”.

With “104 (ALFEGVVRQI; listed as Homo sapiens) [compound 104]” the “Peptide Presentation” value [3] was “+++”, the “Additional Entities” value [1] was “Urinary bladder cancer” and the Other relevant organs/diseases [1] was “Liver, Melanoma, Esophagus”.

In the case of “138 (SLDTLMTYV; listed as Homo sapiens) [compound 138]”, the “Peptide Presentation” value [3] is reported as “++” and the Other relevant organs/diseases [1] is reported as “Lung, Brain, Colon, Rectum, Pancreas, Prostate, Leukocytes, Esophagus”.

For “2 (ILWREVVTL; listed as Homo sapiens) [compound 2]”, the “Peptide Presentation” value [3] was “+++”, the “Additional Entities” value [1] was “Melanoma, NHL” and the Other relevant organs/diseases [1] was “Ovary”.

For “89 (SLLLAVTEV; listed as Homo sapiens) [compound 89]”, the “Peptide Presentation” value [3] was “+” and the “Additional Entities” value [1] was “SCLC, BRCA, Melanoma, Urinary bladder cancer”.

For “45 (ALLGIPLTL; listed as Homo sapiens) [compound 45]”, the “Peptide Presentation” value [3] was “++” and the Other relevant organs/diseases [1] was “Prostate, Ovary, Esophagus”.

In the case of “105 (ALADLDELLIRA; listed as Homo sapiens) [compound 105]”, the “Peptide Presentation” value [3] is reported as “++”, the “Additional Entities” value [1] is reported as “BRCA” and the Other relevant organs/diseases [1] is reported as “Pancreas, Melanoma”.

For “83 (IQWSIVPEV; listed as Homo sapiens) [compound 83]”, the “Peptide Presentation” value [3] was “++” and the “Additional Entities” value [1] was “CLL, Melanoma, Gallbladder Cancer, Bile Duct Cancer, AML, NHL”.

“136 (YQDPHSTAV; listed as Homo sapiens) [compound 136]” was tested, and the “Peptide Presentation” value [3] was “++” and the Other relevant organs/diseases [1] was “Brain, Liver”.

In the case of “91 (MLLSSLVSL; listed as Homo sapiens) [compound 91]”, the “Peptide Presentation” value [3] is reported as “+”, the “Additional Entities” value [1] is reported as “SCLC, Melanoma, Urinary bladder cancer, Gallbladder Cancer, Bile Duct Cancer” and the Other relevant organs/diseases [1] is reported as “Lung, Liver”.

Source: patent publication US9993536B2, “Peptides and combination of peptides and scaffolds for use in immunotherapy against renal cell carcinoma (RCC) and other cancers” (immatics biotechnologies GmbH, priority 2015, dated 2018)
